In patent US6988446B2 (priority 1996, dated 2006):

Test: general procedure: peptide synthesis; 2-chlorotrityl chloride resin
Details: whole synthesis, HPLC

Substance: Cit^1-BK
- purity (crude or final not stated): greater than 98% pure
